In the supplement of paper PMC10849652:
Some of the results follow. Residues, ends and D or L forms follow the SMILES beside them. *: point of attachment. Cbz = O=C(OCc1ccccc1)*

By UniProt entry, the sequences of proteins in these tests, tags left out. Where a name states a change or a piece, a line headed by the entry shows the natural chain unless it says otherwise.
UniProt Q9Y6I8: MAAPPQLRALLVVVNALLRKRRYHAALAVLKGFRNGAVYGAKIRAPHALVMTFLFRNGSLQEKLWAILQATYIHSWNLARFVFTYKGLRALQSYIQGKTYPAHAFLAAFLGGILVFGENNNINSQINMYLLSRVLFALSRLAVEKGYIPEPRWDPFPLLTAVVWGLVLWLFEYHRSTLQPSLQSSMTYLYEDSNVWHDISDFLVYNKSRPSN
UniProt P28066: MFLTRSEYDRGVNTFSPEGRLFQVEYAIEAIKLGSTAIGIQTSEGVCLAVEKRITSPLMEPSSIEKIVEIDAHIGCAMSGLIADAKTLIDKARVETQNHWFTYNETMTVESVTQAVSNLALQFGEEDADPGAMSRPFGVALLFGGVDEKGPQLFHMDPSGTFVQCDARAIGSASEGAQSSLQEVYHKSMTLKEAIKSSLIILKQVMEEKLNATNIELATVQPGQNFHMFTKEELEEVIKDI
UniProt P49720: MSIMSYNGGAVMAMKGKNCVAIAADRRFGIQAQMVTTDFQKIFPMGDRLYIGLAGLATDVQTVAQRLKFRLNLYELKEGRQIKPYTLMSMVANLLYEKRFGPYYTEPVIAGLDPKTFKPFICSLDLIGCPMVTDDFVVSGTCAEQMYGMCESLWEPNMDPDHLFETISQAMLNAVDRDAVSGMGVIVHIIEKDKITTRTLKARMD
UniProt Q9BXR0: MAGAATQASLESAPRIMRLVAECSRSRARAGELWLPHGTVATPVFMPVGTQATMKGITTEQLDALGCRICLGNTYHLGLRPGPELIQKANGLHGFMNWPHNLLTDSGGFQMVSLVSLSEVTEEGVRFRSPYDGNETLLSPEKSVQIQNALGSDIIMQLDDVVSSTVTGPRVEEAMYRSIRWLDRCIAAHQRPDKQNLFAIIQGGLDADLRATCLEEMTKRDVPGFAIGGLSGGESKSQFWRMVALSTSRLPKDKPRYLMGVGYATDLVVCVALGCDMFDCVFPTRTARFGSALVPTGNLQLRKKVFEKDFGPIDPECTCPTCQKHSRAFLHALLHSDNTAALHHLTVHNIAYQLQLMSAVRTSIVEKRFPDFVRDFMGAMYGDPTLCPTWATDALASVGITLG
UniProt Q08623: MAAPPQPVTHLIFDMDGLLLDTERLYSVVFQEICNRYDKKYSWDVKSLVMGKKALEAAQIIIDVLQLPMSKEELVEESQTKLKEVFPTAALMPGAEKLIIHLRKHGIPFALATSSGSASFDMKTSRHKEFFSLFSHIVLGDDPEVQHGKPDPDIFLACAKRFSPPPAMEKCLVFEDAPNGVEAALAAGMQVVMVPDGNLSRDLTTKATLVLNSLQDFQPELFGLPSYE
UniProt O75475: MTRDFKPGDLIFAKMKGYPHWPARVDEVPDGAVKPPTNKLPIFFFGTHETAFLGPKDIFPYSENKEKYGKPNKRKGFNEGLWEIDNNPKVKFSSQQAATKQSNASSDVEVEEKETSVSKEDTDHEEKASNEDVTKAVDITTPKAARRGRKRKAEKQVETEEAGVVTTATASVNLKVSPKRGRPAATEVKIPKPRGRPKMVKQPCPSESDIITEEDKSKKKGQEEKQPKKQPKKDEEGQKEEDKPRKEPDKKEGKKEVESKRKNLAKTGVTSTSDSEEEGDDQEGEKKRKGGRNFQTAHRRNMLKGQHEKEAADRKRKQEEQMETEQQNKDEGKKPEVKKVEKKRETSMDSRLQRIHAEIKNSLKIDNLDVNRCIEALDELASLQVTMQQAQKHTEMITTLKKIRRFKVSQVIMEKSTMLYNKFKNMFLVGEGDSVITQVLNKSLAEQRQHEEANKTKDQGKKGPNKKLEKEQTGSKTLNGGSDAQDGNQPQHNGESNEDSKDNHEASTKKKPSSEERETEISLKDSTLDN
UniProt Q9BRP8: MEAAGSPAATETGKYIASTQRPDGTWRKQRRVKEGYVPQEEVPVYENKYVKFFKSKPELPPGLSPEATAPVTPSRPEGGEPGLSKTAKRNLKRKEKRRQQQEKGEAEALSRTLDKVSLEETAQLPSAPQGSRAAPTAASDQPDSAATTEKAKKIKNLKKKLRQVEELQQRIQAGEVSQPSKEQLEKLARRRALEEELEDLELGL
UniProt O14818: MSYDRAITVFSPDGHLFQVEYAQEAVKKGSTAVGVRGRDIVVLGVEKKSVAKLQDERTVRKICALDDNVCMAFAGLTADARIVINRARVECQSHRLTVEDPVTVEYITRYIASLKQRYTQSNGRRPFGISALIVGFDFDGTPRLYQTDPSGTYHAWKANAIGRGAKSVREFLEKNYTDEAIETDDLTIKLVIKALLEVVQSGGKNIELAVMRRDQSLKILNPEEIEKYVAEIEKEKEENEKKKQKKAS
UniProt O95456: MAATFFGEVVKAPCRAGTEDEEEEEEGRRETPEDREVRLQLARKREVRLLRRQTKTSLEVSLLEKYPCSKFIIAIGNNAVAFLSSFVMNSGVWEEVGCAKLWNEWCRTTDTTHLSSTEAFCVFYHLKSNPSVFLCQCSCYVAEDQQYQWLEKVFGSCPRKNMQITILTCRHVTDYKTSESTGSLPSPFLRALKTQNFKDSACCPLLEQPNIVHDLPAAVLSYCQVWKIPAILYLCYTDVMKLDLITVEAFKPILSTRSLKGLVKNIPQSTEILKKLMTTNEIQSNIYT
UniProt Q9NRG1: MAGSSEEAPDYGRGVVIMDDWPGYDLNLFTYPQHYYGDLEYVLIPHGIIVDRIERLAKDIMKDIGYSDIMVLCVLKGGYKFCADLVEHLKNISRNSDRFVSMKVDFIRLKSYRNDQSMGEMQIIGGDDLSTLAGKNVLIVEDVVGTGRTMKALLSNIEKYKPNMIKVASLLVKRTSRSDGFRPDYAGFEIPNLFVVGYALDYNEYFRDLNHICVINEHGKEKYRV
UniProt Q8TB72: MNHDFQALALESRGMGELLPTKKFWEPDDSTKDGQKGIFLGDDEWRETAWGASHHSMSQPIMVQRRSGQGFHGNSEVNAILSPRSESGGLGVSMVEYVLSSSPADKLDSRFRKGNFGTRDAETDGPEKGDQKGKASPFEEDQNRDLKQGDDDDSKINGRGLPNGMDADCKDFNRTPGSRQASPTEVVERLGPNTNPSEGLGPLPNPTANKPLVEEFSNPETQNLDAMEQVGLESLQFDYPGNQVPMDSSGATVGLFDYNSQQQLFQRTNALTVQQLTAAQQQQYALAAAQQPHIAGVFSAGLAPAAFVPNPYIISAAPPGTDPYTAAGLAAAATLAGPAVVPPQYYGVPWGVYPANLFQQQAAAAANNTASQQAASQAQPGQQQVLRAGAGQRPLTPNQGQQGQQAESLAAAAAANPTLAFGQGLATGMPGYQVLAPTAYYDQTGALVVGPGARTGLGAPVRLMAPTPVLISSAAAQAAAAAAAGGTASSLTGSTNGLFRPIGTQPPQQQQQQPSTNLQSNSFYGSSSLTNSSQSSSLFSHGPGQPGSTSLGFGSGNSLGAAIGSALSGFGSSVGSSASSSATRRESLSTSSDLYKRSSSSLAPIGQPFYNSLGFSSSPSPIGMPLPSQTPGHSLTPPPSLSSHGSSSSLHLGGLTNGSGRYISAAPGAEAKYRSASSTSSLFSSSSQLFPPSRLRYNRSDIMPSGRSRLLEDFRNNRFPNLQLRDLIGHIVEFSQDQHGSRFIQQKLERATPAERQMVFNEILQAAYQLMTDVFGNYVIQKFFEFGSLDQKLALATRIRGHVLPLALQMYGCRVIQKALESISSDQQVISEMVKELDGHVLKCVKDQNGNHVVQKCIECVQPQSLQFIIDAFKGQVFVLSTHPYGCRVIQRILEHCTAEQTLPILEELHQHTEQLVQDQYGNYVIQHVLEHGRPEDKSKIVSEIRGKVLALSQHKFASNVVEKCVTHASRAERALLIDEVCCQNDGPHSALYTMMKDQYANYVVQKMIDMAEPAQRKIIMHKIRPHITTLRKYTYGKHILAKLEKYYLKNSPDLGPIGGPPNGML
UniProt Q15269: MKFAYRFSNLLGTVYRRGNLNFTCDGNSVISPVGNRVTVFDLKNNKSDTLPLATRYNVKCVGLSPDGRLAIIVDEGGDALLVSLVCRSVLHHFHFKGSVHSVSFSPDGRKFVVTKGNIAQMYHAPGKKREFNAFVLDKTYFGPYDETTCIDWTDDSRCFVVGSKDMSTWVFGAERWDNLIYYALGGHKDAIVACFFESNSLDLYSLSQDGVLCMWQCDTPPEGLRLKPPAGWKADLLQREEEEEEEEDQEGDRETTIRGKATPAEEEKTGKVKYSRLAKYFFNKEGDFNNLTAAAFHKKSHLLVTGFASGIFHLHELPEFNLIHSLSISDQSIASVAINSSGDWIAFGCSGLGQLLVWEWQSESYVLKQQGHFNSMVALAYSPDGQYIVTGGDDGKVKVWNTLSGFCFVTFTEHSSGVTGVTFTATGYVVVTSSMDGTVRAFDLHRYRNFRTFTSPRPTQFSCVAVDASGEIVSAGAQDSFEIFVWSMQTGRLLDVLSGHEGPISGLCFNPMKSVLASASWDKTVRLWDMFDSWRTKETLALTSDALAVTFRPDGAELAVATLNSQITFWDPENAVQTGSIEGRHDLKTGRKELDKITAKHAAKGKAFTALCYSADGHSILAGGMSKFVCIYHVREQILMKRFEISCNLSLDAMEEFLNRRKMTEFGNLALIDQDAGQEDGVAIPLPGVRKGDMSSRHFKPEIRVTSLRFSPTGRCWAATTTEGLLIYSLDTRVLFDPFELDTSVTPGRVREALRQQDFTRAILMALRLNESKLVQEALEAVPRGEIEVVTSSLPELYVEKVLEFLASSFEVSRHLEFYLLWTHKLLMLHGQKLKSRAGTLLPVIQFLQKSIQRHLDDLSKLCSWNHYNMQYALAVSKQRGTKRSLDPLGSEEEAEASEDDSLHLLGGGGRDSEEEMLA
UniProt P55036: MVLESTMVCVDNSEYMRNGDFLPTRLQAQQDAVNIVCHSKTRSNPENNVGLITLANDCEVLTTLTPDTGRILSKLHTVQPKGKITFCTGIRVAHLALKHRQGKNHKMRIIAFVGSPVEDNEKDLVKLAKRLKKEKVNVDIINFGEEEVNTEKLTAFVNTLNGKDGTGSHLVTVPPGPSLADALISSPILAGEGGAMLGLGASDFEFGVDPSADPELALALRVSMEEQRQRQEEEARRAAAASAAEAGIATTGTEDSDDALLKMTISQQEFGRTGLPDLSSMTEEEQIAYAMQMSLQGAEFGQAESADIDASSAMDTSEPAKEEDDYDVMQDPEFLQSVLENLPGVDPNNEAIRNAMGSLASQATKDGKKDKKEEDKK
UniProt P26599: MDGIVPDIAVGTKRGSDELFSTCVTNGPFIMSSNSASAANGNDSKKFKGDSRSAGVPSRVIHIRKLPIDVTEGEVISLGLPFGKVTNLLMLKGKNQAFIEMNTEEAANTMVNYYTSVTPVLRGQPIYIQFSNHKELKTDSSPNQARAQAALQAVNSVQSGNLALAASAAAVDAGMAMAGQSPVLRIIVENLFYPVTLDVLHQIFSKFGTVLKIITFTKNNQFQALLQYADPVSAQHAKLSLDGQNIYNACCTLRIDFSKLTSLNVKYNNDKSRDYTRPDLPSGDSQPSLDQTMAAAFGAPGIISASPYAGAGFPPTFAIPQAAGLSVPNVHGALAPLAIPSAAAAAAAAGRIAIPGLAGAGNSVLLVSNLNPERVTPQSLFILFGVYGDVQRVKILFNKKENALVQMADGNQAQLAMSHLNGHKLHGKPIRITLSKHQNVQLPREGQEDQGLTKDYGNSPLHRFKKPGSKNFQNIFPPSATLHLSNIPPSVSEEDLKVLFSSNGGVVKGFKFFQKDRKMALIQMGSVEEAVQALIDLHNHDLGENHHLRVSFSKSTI
UniProt P25787: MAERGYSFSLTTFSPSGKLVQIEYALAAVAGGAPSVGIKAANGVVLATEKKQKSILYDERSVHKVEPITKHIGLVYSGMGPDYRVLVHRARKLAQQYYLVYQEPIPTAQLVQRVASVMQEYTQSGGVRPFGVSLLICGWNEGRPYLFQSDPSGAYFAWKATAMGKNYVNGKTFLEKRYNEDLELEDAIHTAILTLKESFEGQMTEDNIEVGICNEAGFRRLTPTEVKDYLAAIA
UniProt Q7Z6K3: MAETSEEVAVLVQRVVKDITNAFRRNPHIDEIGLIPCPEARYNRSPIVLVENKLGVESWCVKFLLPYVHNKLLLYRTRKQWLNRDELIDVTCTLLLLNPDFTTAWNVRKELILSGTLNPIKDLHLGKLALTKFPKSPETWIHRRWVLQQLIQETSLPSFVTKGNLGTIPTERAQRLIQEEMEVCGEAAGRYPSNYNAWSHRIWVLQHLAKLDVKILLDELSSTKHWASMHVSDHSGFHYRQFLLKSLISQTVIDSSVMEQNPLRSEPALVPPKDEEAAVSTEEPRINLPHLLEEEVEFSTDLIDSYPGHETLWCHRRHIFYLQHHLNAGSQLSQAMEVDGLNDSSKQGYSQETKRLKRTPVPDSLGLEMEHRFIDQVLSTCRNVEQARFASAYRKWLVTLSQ

What was measured:
Assay in all cases: log2 fold change, soluble protein after heating vs DMSO (PISA); higher = thermal stabilisation; K562 cells, 10 uM, 30 min; active = over 0.2 and 3.5 SD of the protein, either way, in both replicates (recomputed)
erlotinib = compound: C#Cc1cccc(Nc2ncnc3cc(OCCOC)c(OCCOC)cc23)c1 [erlotinib]
How it was run: (§1)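 Quantification of soluble protein used TMTpro 16plex LC-MS/MS, with channel sums equalised. Samples were the supernatant after 21,000xg for 90 min of pooled aliquots from K562 cells (2×10^6 cells/mL) treated with 10 μM compound for 30 min, heated for 3 min over 48°C-58°C, and extracted in PBS with 0.5% NP-40 at 4°C. Values, from duplicates, describe thermal stability against control samples on a log2 fold-change scale.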

[1] = compound: C/C(=N\NC(=O)C1=CC(=CC=C1)S(=O)(=O)N2CCOCC2)/C3=C(C=CC(=C3)Cl)O
How it was run: as §1

[2] = compound: C1=CC(=C(C=C1Cl)C2=NC3=NC=CN=C3C(=N2)NC4=CC=NC=C4)F
How it was run: as §1

[3] = compound: C1=CC(=CC=C1C2=NC3=C(N2)C=C(C=C3)C(=O)N)OC4=CC=C(C=C4)Cl
How it was run: as §1

[4] = compound: C1=CC2=C(C=CC(=C2)/C=C\3/C(=O)NC(=NCC4=CC=CS4)S3)N=C1
How it was run: as §1

[5] = compound: C1=CC2=NC=CN=C2C=C1/C=C/3\C(=O)NC(=O)S3
How it was run: as §1

[6] = compound: C1=CC=C(C=C1)C2=NC(=C(N2)C3=CC=NC=C3)C4=CC(=C(C=C4)Cl)O
How it was run: as §1

[7] = compound: C1=CC=C2C(=C1)C3=NNC4=CC=CC(=C43)C2=O
How it was run: as §1

[8] = compound: C1CCN(C1)C(=O)NC2=CC=CC(=C2)NC3=NC=C(C(=N3)NCCC4=CN=CN4)Br
How it was run: as §1

[9] = compound: C1CN(CCC1(CC2=CC=C(C=C2)Cl)N)C3=NC=NC4=C3C=CN4
How it was run: as §1

IRAK-1-4 Inhibitor I = compound: C1COCCN1CCN2C3=CC=CC=C3N=C2NC(=O)C4=CC(=CC=C4)[N+](=O)[O-] [IRAK-1-4 Inhibitor I]
How it was run: as §1

ibrutinib = compound: C=CC(=O)N1CCC[C@@H](n2nc(-c3ccc(Oc4ccccc4)cc3)c3c(N)ncnc32)C1 [ibrutinib]
How it was run: as §1

[10] = compound: CC(=O)c1cnc2ccc(-c3cc(Cl)c(O)c(Cl)c3)nc2c1N[C@H]1CC[C@H](CN(C)C)CC1
How it was run: as §1

ralimetinib = compound: CC(C)(C)Cn1c(N)nc2ccc(-c3[nH]c(C(C)(C)C)nc3-c3ccc(F)cc3)nc21 [ralimetinib]
How it was run: as §1

[11] = compound: CC(C)(O)CC(=O)NCCn1ccc2ncnc(Nc3ccc(Oc4cccc(C(F)(F)F)c4)c(Cl)c3)c21
How it was run: as §1

[12] = compound: CC(C)C1=C2N=C(C=C(N2N=C1)NCC3=CC=CC=C3)NCCCCCCN
How it was run: as §1

[13] = compound: CC(C)C[C@@H](C=O)NC(=O)[C@H](CC(C)C)NC(=O)[C@H](CC(C)C)NC(=O)OCc1ccccc1
How it was run: as §1

pinometostat = compound: CC(C)N(C[C@H]1O[C@@H](n2cnc3c(N)ncnc32)[C@H](O)[C@@H]1O)[C@H]1C[C@@H](CCc2nc3cc(C(C)(C)C)ccc3[nH]2)C1 [pinometostat]
How it was run: as §1

[14] = compound: CC1=C(C(CC(=O)N1)C2=CC=C(C=C2)C(F)(F)F)C(=O)NC3=C(C=C4C(=C3)C=NN4)F
How it was run: as §1

[15] = compound: CC1=C(C2=C(C=C1)C(=O)C3=CC=CC=C3N2CCCN)C
How it was run: as §1

Measured: log2 fold change

PXMP4 (UniProt Q9Y6I8)
inactive: erlotinib -0.001 | [1] 0.097 | [2] 0.018 | [3] 0.006 | [4] 0.013 | [5] -0.038 | [6] -0.009 | [7] 0.1 | [8] -0.033 | [9] 0.018 | IRAK-1-4 Inhibitor I 0.039 | ibrutinib 0.066 | [10] -0.039 | ralimetinib -0.077 | [11] -0.003 | [12] 0.039 | [13] -0.011 | pinometostat 0.136 | [14] -0.02 | [15] 0.076

PSMA5 (UniProt P28066)
inactive: erlotinib -0.057 | [1] -0.028 | [2] 0.026 | [3] -0.008 | [4] -0.036 | [5] -0.004 | [6] 0.027 | [7] 0.009 | [8] 0.007 | [9] 0.019 | IRAK-1-4 Inhibitor I -0.009 | ibrutinib 0.01 | [10] 0.031 | ralimetinib 0.007 | [11] 0.027 | [12] 0.087 | [13] -0.073 | pinometostat -0.031 | [14] 0.011 | [15] 0

PSMB3 (UniProt P49720)
inactive: erlotinib -0.066 | [1] -0.028 | [2] 0.055 | [3] 0.045 | [4] -0.075 | [5] 0.002 | [6] -0.012 | [7] 0.011 | [8] 0.017 | [9] 0.075 | IRAK-1-4 Inhibitor I -0.02 | ibrutinib 0.011 | [10] 0.086 | ralimetinib -0.031 | [11] 0.046 | [12] 0.122 | [13] -0.147 | pinometostat 0.027 | [14] 0.108 | [15] -0.067

QTRT1 (UniProt Q9BXR0)
inactive: erlotinib 0.029 | [1] 0.054 | [2] 0.066 | [3] 0.031 | [4] 0.036 | [5] 0.013 | [6] 0.022 | [7] -0.012 | [8] 0.03 | [9] 0.038 | IRAK-1-4 Inhibitor I 0.033 | ibrutinib 0.047 | [10] -0.036 | ralimetinib 0.001 | [11] -0.039 | [12] 0.017 | [13] -0.027 | pinometostat -0.01 | [14] 0.001 | [15] 0.025

PUDP isoform 4 (UniProt Q08623)
inactive: erlotinib 0.022 | [1] 0.067 | [2] 0.049 | [3] 0.034 | [4] -0.041 | [5] -0.011 | [6] 0.079 | [7] 0.022 | [8] -0.041 | [9] 0.035 | IRAK-1-4 Inhibitor I 0.045 | ibrutinib -0.006 | [10] 0.056 | ralimetinib 0.024 | [11] -0.034 | [12] 0.066 | [13] -0.094 | pinometostat -0.098 | [14] -0.036 | [15] 0.023

Two entries picked at random from those above, as already listed:
PSMB3 (UniProt P49720)
inactive: erlotinib -0.066 | [1] -0.028 | [2] 0.055 | [3] 0.045 | [4] -0.075 | [5] 0.002 | [6] -0.012 | [7] 0.011 | [8] 0.017 | [9] 0.075 | IRAK-1-4 Inhibitor I -0.02 | ibrutinib 0.011 | [10] 0.086 | ralimetinib -0.031 | [11] 0.046 | [12] 0.122 | [13] -0.147 | pinometostat 0.027 | [14] 0.108 | [15] -0.067

PUDP isoform 4 (UniProt Q08623)
inactive: erlotinib 0.022 | [1] 0.067 | [2] 0.049 | [3] 0.034 | [4] -0.041 | [5] -0.011 | [6] 0.079 | [7] 0.022 | [8] -0.041 | [9] 0.035 | IRAK-1-4 Inhibitor I 0.045 | ibrutinib -0.006 | [10] 0.056 | ralimetinib 0.024 | [11] -0.034 | [12] 0.066 | [13] -0.094 | pinometostat -0.098 | [14] -0.036 | [15] 0.023

(list continues)

PSIP1 (UniProt O75475)
inactive: erlotinib -0.041 | [1] -0.126 | [2] -0.202 | [3] 0.045 | [4] -0.052 | [5] 0.008 | [6] -0.047 | [7] -0.001 | [8] 0.023 | [9] -0.023 | IRAK-1-4 Inhibitor I -0.092 | ibrutinib 0.049 | [10] 0.003 | ralimetinib 0.055 | [11] 0.054 | [12] 0.015 | [13] 0.136 | pinometostat 0.154 | [14] 0.047 | [15] 0.127

PYM1 (UniProt Q9BRP8)
inactive: erlotinib 0.018 | [1] -0.127 | [2] -0.15 | [3] 0.025 | [4] -0.028 | [5] -0.015 | [6] -0.004 | [7] -0.049 | [8] 0.076 | [9] -0.064 | IRAK-1-4 Inhibitor I -0.058 | ibrutinib 0.034 | [10] 0.065 | ralimetinib 0.015 | [11] 0.099 | [12] 0.069 | [13] 0.03 | pinometostat 0.067 | [14] 0.029 | [15] -0.218

PSMA7 (UniProt O14818)
inactive: erlotinib -0.102 | [1] -0.02 | [2] 0.009 | [3] 0.019 | [4] -0.042 | [5] -0.003 | [6] -0.063 | [7] 0.018 | [8] 0.019 | [9] 0.026 | IRAK-1-4 Inhibitor I 0.006 | ibrutinib -0.021 | [10] 0.071 | ralimetinib -0.004 | [11] 0.097 | [12] 0.078 | [13] -0.052 | pinometostat 0.001 | [14] 0.017 | [15] -0.011

PSMG1 (UniProt O95456)
inactive: erlotinib -0.005 | [1] 0.014 | [2] 0.11 | [3] -0.009 | [4] -0.056 | [5] 0.003 | [6] 0.017 | [7] -0.042 | [8] 0.022 | [9] 0.014 | IRAK-1-4 Inhibitor I 0.023 | ibrutinib 0.019 | [10] -0.014 | ralimetinib -0.023 | [11] 0.023 | [12] 0.077 | [13] -0.064 | pinometostat -0.039 | [14] 0.064 | [15] 0.006

PRTFDC1 (UniProt Q9NRG1)
inactive: erlotinib 0.022 | [1] 0.028 | [2] 0.038 | [3] 0 | [4] -0.002 | [5] -0.006 | [6] -0.032 | [7] 0.037 | [8] -0.015 | [9] 0.036 | IRAK-1-4 Inhibitor I 0.042 | ibrutinib 0.013 | [10] 0.042 | ralimetinib -0.061 | [11] 0.021 | [12] 0.058 | [13] -0.045 | pinometostat -0.08 | [14] 0.042 | [15] -0.065

PUM2 (UniProt Q8TB72)
inactive: erlotinib -0.034 | [1] -0.022 | [2] -0.095 | [3] 0.025 | [4] 0.027 | [5] -0.073 | [6] 0.004 | [7] -0.061 | [8] 0.018 | [9] 0.045 | IRAK-1-4 Inhibitor I 0.071 | ibrutinib 0.054 | [10] -0.055 | ralimetinib -0.007 | [11] 0.042 | [12] -0.064 | [13] 0.028 | pinometostat 0.004 | [14] -0.059 | [15] 0.068

PWP2 (UniProt Q15269)
inactive: erlotinib -0.065 | [1] -0.046 | [2] 0.066 | [3] 0.018 | [4] -0.046 | [5] 0.032 | [6] 0.018 | [7] -0.006 | [8] 0.027 | [9] -0.015 | IRAK-1-4 Inhibitor I 0.009 | ibrutinib -0.007 | [10] 0.031 | ralimetinib 0.057 | [11] 0.039 | [12] 0.123 | [13] 0.067 | pinometostat 0.181 | [14] -0.034 | [15] 0.19

PSMD4 (UniProt P55036)
inactive: erlotinib -0.065 | [1] -0.06 | [2] -0.038 | [3] 0.029 | [4] -0.036 | [5] -0.062 | [6] 0.016 | [7] 0.036 | [8] 0.02 | [9] 0 | IRAK-1-4 Inhibitor I -0.005 | ibrutinib 0.004 | [10] 0.064 | ralimetinib 0.012 | [11] 0.053 | [12] 0.062 | [13] -0.131 | pinometostat 0.02 | [14] 0.031 | [15] -0.044

PTBP1 (UniProt P26599)
inactive: erlotinib -0.01 | [1] 0.077 | [2] -0.061 | [3] 0.008 | [4] 0.031 | [5] -0.035 | [6] 0.054 | [7] -0.017 | [8] -0.046 | [9] 0.03 | IRAK-1-4 Inhibitor I -0.051 | ibrutinib 0.047 | [10] -0.053 | ralimetinib 0.098 | [11] -0.026 | [12] -0.131 | [13] 0.008 | pinometostat -0.056 | [14] -0.031 | [15] 0.119

PSMA2 (UniProt P25787)
inactive: erlotinib -0.067 | [1] -0.086 | [2] 0.021 | [3] 0.02 | [4] -0.104 | [5] -0.025 | [6] 0.047 | [7] -0.018 | [8] -0.022 | [9] 0.015 | IRAK-1-4 Inhibitor I 0.012 | ibrutinib 0.008 | [10] 0.021 | ralimetinib 0.02 | [11] 0.024 | [12] 0.102 | [13] -0.074 | pinometostat -0.011 | [14] 0.001 | [15] -0.013

PTAR1 (UniProt Q7Z6K3)
inactive: erlotinib 0.028 | [1] 0.166 | [2] -0.078 | [3] 0.059 | [4] -0.003 | [5] -0.025 | [6] -0.025 | [7] 0.044 | [8] -0.023 | [9] 0.126 | IRAK-1-4 Inhibitor I 0.06 | ibrutinib 0.066 | [10] -0.082 | ralimetinib -0.069 | [11] -0.035 | [12] 0.003 | [13] 0.037 | pinometostat -0.034 | [14] -0.024 | [15] -0.055
